PubChem BioAssay AID1259277, Sanger Institute – 2017

Test: 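Follow-up of kinome hits for drug and siRNA synthetic lethality in colorectal cancer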 (follow-up of hits)
System: LS123 human colorectal cancer cells
Reagent: single siRNA against human genes
Challenge: anchor drug BYL719 at 1 µM, cetuximab at 5 µg/ml or trametinib at 10 nM, or DMSO vehicle only, given one day after siRNA delivery
Read-out: 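Replicate-averaged viability normalised to non-targeting pool 2 siRNA, and a synergy score contrasting observed combination viability with single siRNA and single drug effects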
Direction: synergy score with trametinib: higher = stronger synergistic killing with trametinib; synergy score with BYL719: higher = stronger synergistic killing with BYL719; synergy score with cetuximab: higher = stronger synergistic killing with cetuximab
Rule for the call: 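An siRNA counts as active when its synergy score is above 0.10 with one or more anchor drugs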
Meaning of the calls: active = synergy with at least one anchor drug; inactive = no synergy with any anchor drug
In all, the deposit lists 160 reagents; below is a part drawn at random. 48 of them (30%) count as active. 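Calls refer to individual siRNAs; confirming a gene required at least two siRNAs in multiple cell lines.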 The numbers tell different reagents against one gene apart. Further read-outs or replicates are left out here. Not given: the amount of reagent, the time to read-out.

| gene | reagent | synergy score with trametinib | synergy score with BYL719 | synergy score with cetuximab | activity call |
| --- | --- | --- | --- | --- | --- |
| GTF2H1 (general transcription factor IIH subunit 1) | 1 | -0.134 | -0.111 | -0.0491 | inactive |
| GTF2H1 (general transcription factor IIH subunit 1) | 2 | -0.152 | -0.207 | -0.242 | inactive |
| GTF2H1 (general transcription factor IIH subunit 1) | 3 | -0.105 | -0.264 | -0.209 | inactive |
| GTF2H1 (general transcription factor IIH subunit 1) | 4 | -0.0708 | -0.283 | -0.16 | inactive |
| ACVR1 (activin A receptor type 1) | 1 | 0.223 | -0.233 | -0.118 | active |
| ACVR1 (activin A receptor type 1) | 2 | 0.0726 | -0.292 | -0.135 | inactive |
| ACVR1 (activin A receptor type 1) | 3 | 0.0115 | -0.0392 | -0.0147 | inactive |
| ACVR1 (activin A receptor type 1) | 4 | 0.108 | 0.0177 | -0.0468 | active |
| SYK (spleen associated tyrosine kinase) | 1 | 0.193 | -0.0585 | -0.159 | active |
| SYK (spleen associated tyrosine kinase) | 2 | 0.0689 | -0.145 | -0.162 | inactive |
| SYK (spleen associated tyrosine kinase) | 3 | 0.145 | 0.00945 | -0.0728 | active |
| SYK (spleen associated tyrosine kinase) | 4 | 0.0157 | -0.181 | -0.134 | inactive |
| AK2 (adenylate kinase 2) | 1 | 0.167 | -0.0326 | -0.000581 | active |
| AK2 (adenylate kinase 2) | 2 | -0.0781 | -0.192 | -0.166 | inactive |
| AK2 (adenylate kinase 2) | 3 | 0.0415 | -0.205 | 0.0427 | inactive |
| AK2 (adenylate kinase 2) | 4 | 0.161 | 0.0259 | -0.0918 | active |
| BRAF (B-Raf proto-oncogene, serine/threonine kinase) | 1 | 0.00494 | -0.166 | -0.108 | inactive |
| BRAF (B-Raf proto-oncogene, serine/threonine kinase) | 2 | 0.169 | -0.0336 | 0.0425 | active |
| BRAF (B-Raf proto-oncogene, serine/threonine kinase) | 3 | 0.166 | -0.181 | -0.0343 | active |
| BRAF (B-Raf proto-oncogene, serine/threonine kinase) | 4 | -0.094 | -0.151 | -0.0585 | inactive |
| BMPR2 (bone morphogenetic protein receptor type 2) | 1 | -0.0541 | -0.205 | -0.118 | inactive |
| BMPR2 (bone morphogenetic protein receptor type 2) | 2 | 0.153 | -0.103 | 0.0391 | active |
| BMPR2 (bone morphogenetic protein receptor type 2) | 3 | -0.139 | -0.338 | -0.118 | inactive |
| BMPR2 (bone morphogenetic protein receptor type 2) | 4 | -0.124 | -0.266 | -0.111 | inactive |
| PLK1 (polo like kinase 1) | 1 | -0.00823 | -0.146 | -0.0358 | inactive |
| PLK1 (polo like kinase 1) | 2 | 0.00483 | -0.0763 | 0.0926 | inactive |
| PLK1 (polo like kinase 1) | 3 | 0.0813 | -0.0706 | 0.00994 | inactive |
| PLK1 (polo like kinase 1) | 4 | -0.0998 | -0.334 | -0.0341 | inactive |
| CAMK2N1 (calcium/calmodulin dependent protein kinase II inhibitor 1) | 1 | -0.386 | -0.296 | -0.304 | inactive |
| CAMK2N1 (calcium/calmodulin dependent protein kinase II inhibitor 1) | 2 | -0.159 | -0.215 | -0.103 | inactive |
| CAMK2N1 (calcium/calmodulin dependent protein kinase II inhibitor 1) | 3 | -0.211 | -0.204 | -0.165 | inactive |
| CAMK2N1 (calcium/calmodulin dependent protein kinase II inhibitor 1) | 4 | -0.0692 | -0.0611 | -0.0114 | inactive |
| GUCY2D (guanylate cyclase 2D, retinal) | 1 | 0.197 | -0.0106 | 0.0438 | active |
| GUCY2D (guanylate cyclase 2D, retinal) | 2 | 0.273 | -0.00684 | 0.103 | active |
| GUCY2D (guanylate cyclase 2D, retinal) | 3 | -0.013 | -0.163 | -0.129 | inactive |
| GUCY2D (guanylate cyclase 2D, retinal) | 4 | 0.302 | -0.163 | -0.118 | active |
| GRK5 (G protein-coupled receptor kinase 5) | 1 | -0.0474 | -0.263 | -0.078 | inactive |
| GRK5 (G protein-coupled receptor kinase 5) | 2 | 0.0423 | -0.202 | -0.044 | inactive |
| GRK5 (G protein-coupled receptor kinase 5) | 3 | 0.0492 | -0.146 | -0.107 | inactive |
| GRK5 (G protein-coupled receptor kinase 5) | 4 | 0.0226 | -0.14 | -0.107 | inactive |
| PIK3CA | 1 | 0.121 | 0.00954 | 0.00693 | active |
| PIK3CA | 2 | -0.105 | -0.226 | -0.0618 | inactive |
| PIK3CA | 3 | 0.106 | -0.149 | -0.0976 | active |
| PIK3CA | 4 | -0.0191 | -0.274 | -0.316 | inactive |
| MAPKAPK2 (MAPK activated protein kinase 2) | 1 | -0.212 | 0.126 | -0.118 | active |
| MAPKAPK2 (MAPK activated protein kinase 2) | 2 | -0.0416 | -0.274 | -0.0831 | inactive |
| MAPKAPK2 (MAPK activated protein kinase 2) | 3 | 0.0531 | -0.108 | 0.0119 | inactive |
| MAPKAPK2 (MAPK activated protein kinase 2) | 4 | 0.0109 | -0.113 | -0.137 | inactive |

Targets above whose gene name starts with M or m (4):
| gene | reagent | synergy score with trametinib | synergy score with BYL719 | synergy score with cetuximab | activity call |
| --- | --- | --- | --- | --- | --- |
| MAPKAPK2 (MAPK activated protein kinase 2) | 1 | -0.212 | 0.126 | -0.118 | active |
| MAPKAPK2 (MAPK activated protein kinase 2) | 2 | -0.0416 | -0.274 | -0.0831 | inactive |
| MAPKAPK2 (MAPK activated protein kinase 2) | 3 | 0.0531 | -0.108 | 0.0119 | inactive |
| MAPKAPK2 (MAPK activated protein kinase 2) | 4 | 0.0109 | -0.113 | -0.137 | inactive |
